# Measured values: publication PMC12670160, “A drug-repurposing screen of FDA- and EMA-approved drugs identifies two NF-κB inhibitors active against eumycetoma” (Journal of Antimicrobial Chemotherapy, 2025)
# Counter-ions that a name gives are not always drawn. About 130 (2.5%) of roughly 5,300 compounds showed an effect of 50% or more. The list shows a part of the results.
# Test system: M. mycetomatis strain mm55
# Settings: primary screen, metabolic activity vs growth control; 96 h, 2 µM; inhibitor
row,SMILES,% viability [%]
1,"CN1CCN(c2ccc(C(=O)Nc3n[nH]c4ccc(Cc5cc(F)cc(F)c5)cc34)c(NC3CCOCC3)c2)CC1 [ONC0004424, entrectinib rxdx101]",155.1
2,"Clc1ccc2c(NCCNc3ccnc4cc(Cl)ccc34)ccnc2c1 [ONC0002241, nsc5844]",73.06
3,"CN1Cc2ccccc2[C@@H]2c3cccc4[nH]cc(c34)C[C@H]21 [ONC0000732, cy208243]",63.23
4,"O=c1[nH]c([C@@H]2CCCN2)nc2c1oc1ccc(Cl)cc12 [ONC0001835, xl413 hydrochloride]",97.05
5,"O=C(Nc1cccc(Cl)c1)Nc1ncc(CCNc2ncnc3ccsc23)s1 [ONC0000061, sns314 methanesulfonate]",83.41
6,"Nc1nc(N)nc(-c2cc(Cl)ccc2Cl)n1 [ONC0001407, irsogladine]",98.52
7,"CCN1CCCC1CNC(=O)c1cc(S(=O)(=O)CC)c(N)cc1OC (stereo not shown) [ONC0001538, amisulpride]",104.1
8,"CC(C)(C)[C@@]1(O)CCN2C[C@@H]3c4ccccc4CCc4cccc(c43)[C@H]2C1 [ONC0002006, butaclamolhcl]",90.12
9,"CCCS(=O)(=O)Nc1ccc(F)c(C(=O)c2c[nH]c3ncc(Cl)cc23)c1F [ONC0004747, plx4720]",107.4
10,"CNC(=O)CN1CCC(Oc2cc3c(Nc4cccc(Cl)c4F)ncnc3cc2OC)CC1 [ONC0005004, azd8931]",85.22
11,"Cc1cn(C[C@H](N)C(=O)O)c(=O)n(Cc2ccsc2C(=O)O)c1=O [ONC0001727, ubp310]",134.9
12,"CC(=O)c1ccc2c(c1)[C@@H]1C=CC[C@@H]1[C@H](c1cc3c(cc1Br)OCO3)N2 [ONC0000232, g1]",65.68
13,"c1cnc(NCc2ccc(CNc3ncccn3)cc2)nc1 [ONC0002000, msx122]",83.13
14,"N[C@H](Cc1cc(I)c(Oc2ccc(O)c(I)c2)c(I)c1)C(=O)O [ONC0003830, liothyronine]",90.31
15,"COc1cc(N)c(Cl)cc1C(=O)NC1CCN(Cc2ccccc2)CC1 [ONC0002349, clebopride]",82.36
16,"S=P(N1CC1)(N1CC1)N1CC1 [ONC0003122, thiotepa]",71.7
17,"CC12CCC(C(=O)N(CCCCN3CCN(c4ccccn4)CC3)C1=O)C2(C)C (stereo not shown) [ONC0003565, piricapiron]",102.1
18,"c1ccc(C2(c3ccccc3)CC2=C2NCCN2)cc1 [ONC0005472, cibenzoline]",97.66
19,"CNCCc1c[nH]cn1 [ONC0002580, nalphamethylhistaminedihydrochloride]",77.02
20,"CCCCOc1ccc(OCCCN2CCOCC2)cc1 [ONC0000632, pramoxine hydrochloride]",97.11

row,SMILES,% viability [%]
1,"CCCC[C@H](C)C[C@H](O)/C=C/[C@H]1[C@H](O)CC(=O)[C@@H]1CCCC/C=C/C(=O)O [ONC0005482, limaprost]",96.34
2,"CCCOc1ccc2nc(NC(=O)OC)[nH]c2c1 [ONC0002872, oxibendazole]",89.15
3,"CC1(C)S[C@@H]2[C@H](/N=C/N3CCCCCC3)C(=O)N2[C@H]1C(=O)O [ONC0005484, amdinocillin]",106.3
4,"CN1CCN(C(=O)CN[C@@H]2C[C@H]2c2ccc(OCc3ccccc3)cc2)CC1 [ONC0000424, rn1]",85.6
5,"CC(=O)N[C@H]1[C@H]([C@H](O)[C@H](O)CO)O[C@](O)(C(=O)O)C[C@@H]1O [ONC0003418, nacetylneuraminic acid]",74.29
6,"COc1cc(N2CCC(N3CCN(C)CC3)CC2)ccc1Nc1ncc(Cl)c(Nc2ccccc2S(=O)(=O)C(C)C)n1 [ONC0004374, tae684 nvptae684]",132.9
7,"CC1CCc2cc(F)cc3c(=O)c(C(=O)O)cn1c23 (stereo not shown) [ONC0003194, flumequine]",88.77
8,"O=C(NCC1CCCCN1)c1cc(OCC(F)(F)F)ccc1OCC(F)(F)F (stereo not shown) [ONC0001650, flecainide]",77.98
9,"Nc1nccc(Oc2ccc(NC(=O)c3cn(COP(=O)(O)O)cc(-c4ccc(F)cc4)c3=O)cc2F)c1Cl [ONC0000759, scr1481b1]",84.2
10,"CCC(CC)[C@H](NC(C)=O)[C@@H]1[C@H](O)[C@@H](C(=O)O)C[C@H]1NC(=N)N [ONC0004447, peramivir trihydrate]",122.8
11,"CC(C)c1nc(CN(C)C(=O)N[C@H](C(=O)N[C@@H](Cc2ccccc2)C[C@H](O)[C@H](Cc2ccccc2)NC(=O)OCc2cncs2)C(C)C)cs1 [ONC0004602, ritonavir]",66.72
12,"COc1cc2c(cc1OC)-c1cc3nc4ccccc4nc3n1C(C)(C)C2 [ONC0001489, ym90709]",74.53
13,"COc1ccccc1OCCNCC(O)COc1cccc2[nH]c3ccccc3c12 (stereo not shown) [ONC0004229, carvedilol]",59.96
14,"COc1ccc(CCCOC(Cn2ccnc2)c2ccc(OC)cc2)cc1 (stereo not shown) [ONC0000065, skf96365]",143.6
15,"COc1ccc(C(C)=O)c(O)c1 [ONC0002736, paeonol peonol]",74.65
16,"CC(C)N[C@H]1CCn2c(=O)[nH]c3cccc(c32)[C@@H]1O [ONC0003872, zilpaterol]",87.84
17,"COc1ccc(-n2nc(C(N)=O)c3c2C(=O)N(c2ccc(N4CCCCC4=O)cc2)CC3)cc1 [ONC0005465, apixaban]",93.64
18,"CC(C)[C@H]1CC[C@H](C(=O)N[C@H](Cc2ccccc2)C(=O)O)CC1 [ONC0004252, nateglinide]",54.34
19,"COc1c(O)cc2c(c1O)[C@@H]1O[C@H](CO)[C@@H](O)[C@H](O)[C@H]1OC2=O [ONC0003213, bergenin]",99.85
20,"CC(=O)Oc1cccc(C(=O)O)c1OC(C)=O [ONC0002835, dipyrocetyl]",97.19

# Single entries from the list:
# % viability [%], COc1c(O)cc2c(c1O)[C@@H]1O[C@H](CO)[C@@H](O)[C@H](O)[C@H]1OC2=O [ONC0003213, bergenin] is entered as 99.85
# % viability [%], CC(C)N[C@H]1CCn2c(=O)[nH]c3cccc(c32)[C@@H]1O [ONC0003872, zilpaterol] is entered as 87.84
